Experimental data reported in article doi:10.1101/2024.08.09.607194.

Amino acid sequences for entries named in this document (tags omitted).
UniProt Q71RJ2: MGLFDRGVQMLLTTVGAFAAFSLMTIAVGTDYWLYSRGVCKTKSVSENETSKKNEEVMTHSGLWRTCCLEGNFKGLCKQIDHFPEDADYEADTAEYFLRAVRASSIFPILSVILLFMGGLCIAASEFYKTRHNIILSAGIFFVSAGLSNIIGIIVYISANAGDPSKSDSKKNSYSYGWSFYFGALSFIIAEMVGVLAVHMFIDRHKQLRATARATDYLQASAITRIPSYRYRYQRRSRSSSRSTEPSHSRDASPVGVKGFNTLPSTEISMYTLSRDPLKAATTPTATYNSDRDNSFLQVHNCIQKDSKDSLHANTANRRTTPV
UniProt O88943: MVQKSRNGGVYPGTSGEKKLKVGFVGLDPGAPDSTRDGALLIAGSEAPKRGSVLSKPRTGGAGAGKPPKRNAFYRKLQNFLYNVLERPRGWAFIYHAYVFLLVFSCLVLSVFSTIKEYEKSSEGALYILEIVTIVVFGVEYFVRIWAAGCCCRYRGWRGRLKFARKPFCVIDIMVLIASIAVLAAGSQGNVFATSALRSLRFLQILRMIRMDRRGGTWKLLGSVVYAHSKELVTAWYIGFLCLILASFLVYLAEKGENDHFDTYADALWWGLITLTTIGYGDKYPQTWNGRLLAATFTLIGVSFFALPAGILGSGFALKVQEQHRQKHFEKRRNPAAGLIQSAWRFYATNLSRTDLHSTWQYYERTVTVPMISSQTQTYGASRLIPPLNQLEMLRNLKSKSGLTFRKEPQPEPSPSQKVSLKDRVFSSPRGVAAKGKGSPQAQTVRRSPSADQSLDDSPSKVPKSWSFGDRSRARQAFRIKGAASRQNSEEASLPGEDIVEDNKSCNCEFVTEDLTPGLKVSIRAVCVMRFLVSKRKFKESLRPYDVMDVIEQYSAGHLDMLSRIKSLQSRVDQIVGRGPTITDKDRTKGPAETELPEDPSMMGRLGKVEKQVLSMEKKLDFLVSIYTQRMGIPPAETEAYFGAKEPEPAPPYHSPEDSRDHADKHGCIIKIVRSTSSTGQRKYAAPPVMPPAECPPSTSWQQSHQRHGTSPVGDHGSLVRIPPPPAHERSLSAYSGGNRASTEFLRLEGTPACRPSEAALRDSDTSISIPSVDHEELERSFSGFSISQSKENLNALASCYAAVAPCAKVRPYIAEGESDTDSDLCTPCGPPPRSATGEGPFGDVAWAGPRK

Molecular target: TARP-γ2 (stargazin; endogenous, rat neurons) (rat (endogenous in cortical and hippocampal neurons)) (UniProt Q71RJ2)
Test: affinity purification with mass spectrometry

binding: binds
Substance: Kv7.2 subunit of M-channels (endogenous, rat neurons) (from UniProt O88943 1-852)

Results are given in words; binding and its absence hold for the method and conditions named. Binding seen in cells or lysates may run through a third protein. A yes stands for co-enrichment or nearness to the bait. Other partners may have been found.
